## Drug screen on melanoma cell lines: cell count

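Human melanoma cell lines in 1,536-well plates were treated with a single drug for 72 h, then fixed, stained and imaged. Each value is the count of nuclei relative to DMSO-treated wells, in %, so that 100 equals the control. Every drug was used at one fixed concentration, the higher of two screened. These are primary screening values without error estimates.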
This is part of the screen, not chosen by result.
An entry leaves out what has no value listed here.
A dash means that no value is listed here.

| Compound | WM1745 | SK-MEL-5 | WM115 | WM3526 | UACC-62 |
|---|---|---|---|---|---|
| COc1cc(N2CCC(N3CCN(C)CC3)CC2)ccc1Nc1ncc(Cl)c(Nc2ccccc2S(=O)(=O)C(C)C)n1 at 0.4 µM | - | 73.8 | 93.9 | 72.2 | 75.4 |
| C#Cc1cccc(Nc2ncnc3cc(OCCOC)c(OCCOC)cc23)c1 at 4 µM | 89.9 | 70.9 | 68.3 | 93.1 | 63.2 |
| C[As](C)SC[C@H](NC(=O)CC[C@H](N)C(=O)O)C(=O)NCC(=O)O at 2 µM | 97.2 | 59.5 | 60.7 | 79.9 | 72.5 |
| CNC(=O)c1cc(Oc2ccc(NC(=O)Nc3ccc(Cl)c(C(F)(F)F)c3)cc2)ccn1 at 2 µM | 97.1 | 90.3 | 84.5 | 93.0 | 95.2 |
| COc1ccc2c(c1)CCC1C2CCC2(C)C(NCCCCCCN3C(=O)C=CC3=O)CCC12 (stereo not shown) at 2 µM | - | 79.2 | 98.6 | 85.2 | 64.6 |
| Clc1ccc(Nc2nnc(Cc3ccncc3)c3ccccc23)cc1 at 10 µM | 71.5 | 61.5 | 96.7 | 76.1 | 72.9 |
| Oc1nc(-c2ccc(C(F)(F)F)cc2)nc2c1CSCC2 at 10 µM | - | 68.9 | 85.0 | 93.9 | 71.3 |
| CC1(C)NC(=O)N(c2ccc([N+](=O)[O-])c(C(F)(F)F)c2)C1=O at 5 µM | 147 | 129 | 123 | 99.0 | 95.1 |
| OCCn1cc(-c2cnc3nnn(Cc4ccc5ncccc5c4)c3n2)cn1 at 5 µM | 123 | 96.2 | 87.1 | 92.2 | 109 |
| O=C(Nc1ccccc1)c1cc([N+](=O)[O-])ccc1Cl at 10 µM | - | 76.2 | 80.4 | 99.7 | 75.2 |
| Oc1cc(-c2nc(-c3ccccc3)[nH]c2-c2ccncc2)ccc1Cl at 1 µM | - | 60.3 | 47.6 | 53.8 | 43.9 |
| C=CCn1c(=O)c2cnc(Nc3ccc(N4CCN(C)CC4)cc3)nc2n1-c1cccc(C(C)(C)O)n1 at 0.1 µM | 53.6 | 61.8 | 59.5 | 82.4 | 72.8 |
| C[C@]1(O)C[C@@H](c2nc(-c3ccc4ccc(-c5ccccc5)nc4c3)c3c(N)nccn32)C1 at 2 µM | 71.8 | 93.5 | 85.1 | 76.6 | 88.2 |
| CCCS(=O)(=O)Nc1ccc(F)c(C(=O)c2c[nH]c3ncc(Cl)cc23)c1F at 0.4 µM | 109 | 63.3 | 80.2 | 62.3 | 58.2 |
| N#CC[C@H](C1CCCC1)n1cc(-c2ncnc3[nH]ccc23)cn1 at 5 µM | 74.9 | 95.1 | 90.3 | 126 | 97.0 |
| NC1(c2ccc(-c3nc4ccn5c(=O)[nH]nc5c4cc3-c3ccccc3)cc2)CCC1 at 2 µM | 61.3 | 56.0 | 59.2 | 57.6 | 44.6 |
| Cc1cc(N2CCOCC2)cc2[nH]c(-c3c(NC[C@@H](O)c4cccc(Cl)c4)cc[nH]c3=O)nc12 at 1 µM | 54.8 | 89.5 | 99.5 | 86.0 | 111 |
| Cc1cc([N+](=O)[O-])ccc1NS(=O)(=O)c1cc(Cl)ccc1Cl at 5 µM | - | 64.9 | 66.8 | 71.0 | 70.2 |
| O=C(Nc1cccc(Cl)c1)Nc1ncc(CCNc2ncnc3ccsc23)s1 at 0.004 µM | 70.3 | 54.4 | 44.2 | 88.7 | 61.3 |
| O=c1cc(-c2cccc3c2Sc2ccccc2S3)oc(N2CCOCC2)c1 at 5 µM | - | 86.2 | 90.2 | 77.4 | 78.8 |
| CO[C@H]1C[C@@H]2CC[C@@H](C)[C@@](O)(O2)C(=O)C(=O)N2CCCC[C@H]2C(=O)O[C@H]([C@H](C)C[C@@H]2CC[C@@H](OCCO)[C@H](OC)C2)CC(=O)[C@H](C)/C=C(\C)[C@@H](O)[C@@H](OC)C(=O)[C@H](C)C[C@H](C)/C=C/C=C/C=C/1C at 0.1 µM | 68.2 | 60.0 | 70.2 | 76.1 | 59.5 |
| C[C@@H](Oc1cc(-c2cnn(C3CCNCC3)c2)cnc1N)c1c(Cl)ccc(F)c1Cl at 1 µM | 49.1 | 81.7 | 63.5 | 63.1 | 110 |
| CCN(CC)CCCCNc1ncc2cc(-c3cc(OC)cc(OC)c3)c(NC(=O)NC(C)(C)C)nc2n1 at 0.5 µM | - | 92.1 | 92.8 | 101 | 76.8 |
| COC(=O)c1sccc1S(=O)(=O)Nc1ccc(Nc2ccccc2)cc1OC at 5 µM | - | 67.4 | 104 | 81.6 | 80.9 |

The last 2 entries again:

- CCN(CC)CCCCNc1ncc2cc(-c3cc(OC)cc(OC)c3)c(NC(=O)NC(C)(C)C)nc2n1 at 0.5 µM | SK-MEL-5: 92.1; WM115: 92.8; WM3526: 101; UACC-62: 76.8
- COC(=O)c1sccc1S(=O)(=O)Nc1ccc(Nc2ccccc2)cc1OC at 5 µM | SK-MEL-5: 67.4; WM115: 104; WM3526: 81.6; UACC-62: 80.9

Source: doi:10.1371/journal.pone.0140310, primary screening data, rounded.